Results on seven molecules are retold here after paper doi:10.1101/2021.01.15.426901.

Chains of the proteins cited; added tags and fusions are not shown. Lines headed by an entry give the natural chain unless they say otherwise; changes in a name come on top.
UniProt Q562E2: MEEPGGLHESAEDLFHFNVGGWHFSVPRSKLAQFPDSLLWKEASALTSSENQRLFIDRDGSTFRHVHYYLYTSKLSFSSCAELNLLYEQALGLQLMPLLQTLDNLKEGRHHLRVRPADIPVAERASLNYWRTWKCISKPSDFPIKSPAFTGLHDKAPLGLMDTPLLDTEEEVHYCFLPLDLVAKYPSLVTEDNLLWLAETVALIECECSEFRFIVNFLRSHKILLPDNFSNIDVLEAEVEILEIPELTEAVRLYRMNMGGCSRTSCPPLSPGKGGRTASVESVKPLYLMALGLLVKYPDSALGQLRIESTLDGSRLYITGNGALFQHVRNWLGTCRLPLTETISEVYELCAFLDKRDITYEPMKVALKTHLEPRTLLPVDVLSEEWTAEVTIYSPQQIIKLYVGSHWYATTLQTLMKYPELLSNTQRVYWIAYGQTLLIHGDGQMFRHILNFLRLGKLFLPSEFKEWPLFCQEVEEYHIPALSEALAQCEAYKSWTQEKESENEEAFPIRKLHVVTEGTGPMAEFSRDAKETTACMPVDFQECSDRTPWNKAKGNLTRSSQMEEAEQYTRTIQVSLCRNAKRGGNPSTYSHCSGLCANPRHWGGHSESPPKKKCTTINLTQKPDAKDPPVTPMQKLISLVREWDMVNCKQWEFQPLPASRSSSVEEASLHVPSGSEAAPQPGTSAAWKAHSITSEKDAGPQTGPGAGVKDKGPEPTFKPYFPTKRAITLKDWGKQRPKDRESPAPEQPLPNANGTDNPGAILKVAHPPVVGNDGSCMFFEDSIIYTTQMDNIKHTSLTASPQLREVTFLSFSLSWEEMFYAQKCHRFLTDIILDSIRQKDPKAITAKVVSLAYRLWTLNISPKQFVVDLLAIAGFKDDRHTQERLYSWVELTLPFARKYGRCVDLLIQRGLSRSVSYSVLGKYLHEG
UniProt P70288: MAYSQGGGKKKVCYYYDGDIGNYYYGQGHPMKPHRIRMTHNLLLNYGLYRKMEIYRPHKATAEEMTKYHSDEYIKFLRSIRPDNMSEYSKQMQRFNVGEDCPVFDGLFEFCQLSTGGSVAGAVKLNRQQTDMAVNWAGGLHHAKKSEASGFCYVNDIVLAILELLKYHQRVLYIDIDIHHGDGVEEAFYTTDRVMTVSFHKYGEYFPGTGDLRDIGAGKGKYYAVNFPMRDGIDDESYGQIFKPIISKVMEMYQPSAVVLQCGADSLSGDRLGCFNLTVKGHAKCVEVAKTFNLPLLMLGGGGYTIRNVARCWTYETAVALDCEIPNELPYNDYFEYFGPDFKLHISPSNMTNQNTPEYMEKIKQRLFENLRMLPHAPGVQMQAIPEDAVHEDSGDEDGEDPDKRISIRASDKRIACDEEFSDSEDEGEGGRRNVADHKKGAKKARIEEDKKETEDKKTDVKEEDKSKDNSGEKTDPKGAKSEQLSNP
UniProt O09106: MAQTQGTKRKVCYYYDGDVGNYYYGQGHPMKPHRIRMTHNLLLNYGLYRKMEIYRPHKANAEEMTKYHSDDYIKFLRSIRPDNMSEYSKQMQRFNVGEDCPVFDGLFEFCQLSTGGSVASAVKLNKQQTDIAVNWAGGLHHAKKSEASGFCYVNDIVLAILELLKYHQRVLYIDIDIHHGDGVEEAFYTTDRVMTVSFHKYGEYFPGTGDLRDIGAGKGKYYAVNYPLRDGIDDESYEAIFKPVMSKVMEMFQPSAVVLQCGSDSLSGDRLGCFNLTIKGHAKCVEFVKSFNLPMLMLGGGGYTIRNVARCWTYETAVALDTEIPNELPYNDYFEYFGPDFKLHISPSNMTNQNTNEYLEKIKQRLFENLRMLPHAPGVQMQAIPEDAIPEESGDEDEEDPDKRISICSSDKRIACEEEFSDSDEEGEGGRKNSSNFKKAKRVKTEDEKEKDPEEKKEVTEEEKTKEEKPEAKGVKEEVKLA

First the molecules themselves.
T1: ZFP541 (mouse (endogenous in testis)) (UniProt Q0GGX2)
T1 sequence: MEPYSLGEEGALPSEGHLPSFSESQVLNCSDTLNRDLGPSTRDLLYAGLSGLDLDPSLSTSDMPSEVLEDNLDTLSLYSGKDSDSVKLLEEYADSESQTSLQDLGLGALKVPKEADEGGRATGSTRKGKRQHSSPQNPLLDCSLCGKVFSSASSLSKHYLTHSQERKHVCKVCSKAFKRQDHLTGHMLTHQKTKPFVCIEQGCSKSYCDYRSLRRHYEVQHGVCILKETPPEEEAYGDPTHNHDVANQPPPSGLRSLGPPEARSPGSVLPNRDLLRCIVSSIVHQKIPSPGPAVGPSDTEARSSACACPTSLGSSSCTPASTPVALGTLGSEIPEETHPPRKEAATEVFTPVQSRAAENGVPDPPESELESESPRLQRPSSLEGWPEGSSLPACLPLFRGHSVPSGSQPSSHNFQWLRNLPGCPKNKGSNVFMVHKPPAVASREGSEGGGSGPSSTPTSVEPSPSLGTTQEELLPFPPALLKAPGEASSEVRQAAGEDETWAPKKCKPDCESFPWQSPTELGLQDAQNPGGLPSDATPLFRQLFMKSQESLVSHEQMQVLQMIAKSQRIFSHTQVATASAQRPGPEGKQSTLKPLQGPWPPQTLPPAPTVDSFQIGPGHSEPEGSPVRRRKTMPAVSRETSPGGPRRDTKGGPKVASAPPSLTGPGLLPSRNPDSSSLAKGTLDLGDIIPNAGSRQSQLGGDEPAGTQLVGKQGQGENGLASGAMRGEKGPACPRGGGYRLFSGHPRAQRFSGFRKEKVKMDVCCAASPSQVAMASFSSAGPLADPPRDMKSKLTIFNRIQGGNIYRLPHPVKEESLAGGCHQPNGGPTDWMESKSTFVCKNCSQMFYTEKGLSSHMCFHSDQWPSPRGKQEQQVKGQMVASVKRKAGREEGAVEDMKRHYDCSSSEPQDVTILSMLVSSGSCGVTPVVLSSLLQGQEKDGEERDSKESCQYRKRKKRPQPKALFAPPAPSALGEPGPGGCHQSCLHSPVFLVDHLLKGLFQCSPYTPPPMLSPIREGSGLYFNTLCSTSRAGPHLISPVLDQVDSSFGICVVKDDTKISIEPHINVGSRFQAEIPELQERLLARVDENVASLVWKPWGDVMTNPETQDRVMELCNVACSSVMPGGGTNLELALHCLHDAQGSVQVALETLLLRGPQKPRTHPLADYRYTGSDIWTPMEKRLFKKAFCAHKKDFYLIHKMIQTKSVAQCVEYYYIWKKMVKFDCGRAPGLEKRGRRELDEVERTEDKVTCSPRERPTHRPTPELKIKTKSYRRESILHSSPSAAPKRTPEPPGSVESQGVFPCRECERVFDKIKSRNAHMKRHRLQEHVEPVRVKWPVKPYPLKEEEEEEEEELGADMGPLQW

B1: terminal deoxynucleotidyltransferase interacting factor 1 (TDIF1) (protein, UniProt Q99LB0 1-328)
chain: MGATGDTEQPRGPGGAERGGLELGDAGAAGQPVLTNPWNIMIKHRQVQRRGRRSQMTTSFTDPAISMDLLRAVLQPSINEEIQGVFNKYMKFFQKAALNVRDNVGEEVDAEQLIQEACRSCLEQAKLLFSDGEKVIPRLAHELPGIKRGRQAEEESHRGSPIPKKRKGRPPGHVLSNDRAAAGMVWKQKSCEPIRREGPKWDPARLNESTTFVLGSRANKALGMGGTRGRIYIKHPHLFKYAADPQDKHWLAEQHHMRATGGKMAYLLIEEDIRDLAASDDYRGCLDLKLEELKSFVLPSWMVEKMRKYMETLRTENEHRAAEAPPQT
B2: Transcription regulatory factor 1 (TRERF1) (protein, UniProt Q8BXJ2 1-1205)
chain: MGDQQLYKTNHVGHGGENLFYQQPPLGVHSGLGHSYGNTISGAGMDAPQASPISPHFPQDTRDGLGLPIGSKNLGQMDTSRQGGWGSHAGPGNHVQLRSNLANSNMMWGTPTQVEPADGYQYTYSQASEIRTQKLTSGVLHKLDSFTQVFANQNLRIQVNNMAQVLHTQSAVMDGASDSALRQLLSQKPVEPSASAIASRYQQVPQQPHPGFTGGLPKPALPVGQHAPQGHLYYDYQQPLAQMSMQGGQPLQAPQVLSGHMQQLQQHQYYPQPPPQQQQAGLQRISVQEMQQQQQPQQIRPSPPQQQQQLQLQQRQSSLQIPQYYQPQPMMQHLQEQQQPSMHLQPPSYHRDPHQYTPEQAHAVQLIQLGSMPQYYYQEPQQAYSHPLYPQSHLSQHQQREDGQLKTYSSDRQTPAMLSSHGDMGTSDTGVADPASSEMTRVTSTLPHQPLLSPSGIHLNNMGSQHQQPPSPSAMWPQMHLPDGRAQSGSPESSSGQTKGVFGEQFDAKNKLTCSICLKEFKSLPALNGHMRSHGGMRASPSLKQEEGEKAPPPQPQPQPQPQQPLPPPPPPPPPPQLPPEAERLTPMVMPVSVPVKLIPPKPSSQGFTNSVAATPAARDKPASSMSDDEMPVLEIPRKHPPIAAKVEEPLKNLPEKKKFRHRPEPLFIPPPPSSYTPNPTSYSGATLYQSQLRSPRILGDHLLLDPAHELPPYTPPPMLSPVRQGSGLFSNVLISGHGPGVHPQLPLTPLTPTPRVLLCRSSSIDGSNVTVTPGPGEQTVDVEPRINIGLRFQAEIPELQDVSALAQDTHRATLVWKPWPELENQALQQQVENLLNLCCSSALPGGGTNSEFALHSLFEAKGDVMATLEMLLLRKPVRLKCHPLANYHYAGSDKWTSLERKLFNKALATYSKDFIFVQKMVKSKTVAQCVEYYYTWKKIMRLGRKHRTRLAEIIDDCMTSEEEEEAEEEEEDPEEDRKSIKEEESEVAKSPEPPPAPALAPTEGPPMQAVGQQPSGNFICEMPNCGAVFSSRQALNGHARIHGGTNQVAKTRGAIPSGKQKPGGTQSGYCSVKSSPSHSTTSGETDPTTIFPCKECGKVFFKIKSRNAHMKTHRQQEEQQRQKAQKAAFAAEMAATIERTTGPVGAPELLPLDQLSLMKPVKDVDILDDDVVQQLGVMDEAEVVGTDLLLDDQDSVLLQGDTEL
B3: ZFP541 (protein, UniProt Q0GGX2 1-1363)
chain: T1 sequence
B4: MIDEAS (protein, UniProt E9Q2I4 1-1089)
chain: MNLQAQSKAQSKRKRCPFGDQEPAAKEQPPPLQSPPQSLRAKEEQYGAHEGPTGVASTTQPVELSPPNNLALLNSVVYGSERTTAAMLSQQAQVSSVKWPSSVMAPGRGLERGGGGGISDSGWQQQPGQPPPHSTWNHLPLYGGPKGSPHPGVGVPPYYNHPEALKGNKPGGPQLDHYGNAVQPMVPQKVQLEVGRPQAPLNSFHAAKKPPNQTLPLQPFQLAFGHQVNRQVFRQGPQPSNPTASFPPQKQQQQQQPAALPQMQLFENYYPMHQLPSQQHQDFGLAPGGPLGQTHLAHRSMAPYPFSHNPDMNPELRKALLQDPASQPVLPQPQMAFPRRSRRLSKEGILPSNSLDGAGTQPGQEPASNLFLHHWSLPQPPPGTLGQPHSEALGFPLELRESQMLADGDRLAPNGREREPPAMGNEEVMRAGGLGDCGQMIRSGVIQSTKRRRRVSQEANLLTLAQKAVELASMQDANGSEEKRKSVLATTSRCGVEFSEPALAAKRAREESGMVPLIIPVSVPVRTVGPTEVAQVGGADEDGTGLEQYPTEHKPSVIVTRRRSTRVPGTDAAAQAEDLNVKLEGEPSMRKPKQRPRPEPLIIPTKAGTFIAPPVYSNITPYQSHLRSPVRLADHPSERSFEPPPYTPPPILSPVREGSGLYFNAIISTSNIPAPPPITPKSAHRTLLRSNSSEVTPPVLSVMGEATPVSIEPRINVGTRFQAEIPMMRDRALAAFDPHKADLVWQPWEHLESSWEKQRQVDDLLTAACSSIFPGAGTNQELALHYLHESRGDILEALNKLLLRKPLRPHNHPLATYHYTGSDQWKTAERKLFNKGIAIYKKDFFLVQKLIQTKTVAQCVEFYYTYKKQVKIGRNGTLTFGDLDIGDEKSGQEEVEVDVKTSQKFPRVPPPRRESPSEERLEPKREVTEPRKEGEEEVPDTQEKGEQEEGRERCRRAAAVKATQTLQANEAANDVLILRSHEPNAPGSAGIQTSEKPREGPGKSRRALPFTEKKKKAEAFNKTQNQENTFPCKKCGRVFYKVKSRSAHMKSHAEQEKKAAALRLKEKEAAAAAAHQQALREESGEGEKG

Results are given in words; binding and its absence hold for the method and conditions named. Binding seen in cells or lysates may run through a third protein. A yes stands for co-enrichment or nearness to the bait. Other partners may have been found.

For one assay, the target named is KCTD19 (mouse (endogenous in testis)) (UniProt Q562E2). The assay can be described thus: affinity purification with mass spectrometry.
B1: the binding entry is “binds”.

For the molecule B2, the binding entry was “binds”.

Consider B3, for which the binding result is listed as “binds”.

For B4, the binding entry is recorded as “binds”.

The next assay addresses T1, ZFP541 (mouse (endogenous in testis)). The assay can be described thus: affinity purification with mass spectrometry.
For “HDAC2 (from UniProt P70288 1-488) (enzyme)”, the binding result is reported as “binds”.

Take KCTD19 (from UniProt Q562E2-2): the binding entry is recorded as “binds”.

As to “HDAC1 (from UniProt O09106 1-482) (enzyme)”, the binding entry was “binds”.

On to B1, for which the binding result is listed as “binds”.

The target is the same in another assay. As to the kind of experiment: affinity purification with mass spectrometry. The source holds these as a separate data set.
As to “HDAC2 (from UniProt P70288 1-488) (enzyme)”, the binding entry was “binds”.

As for KCTD19 (from UniProt Q562E2-2), the binding result was “binds”.

Regarding “HDAC1 (from UniProt O09106 1-482) (enzyme)”, the binding result was “binds”.

Regarding B1, the binding entry was “binds”.

In a further assay the target is KCTD19 (mouse (endogenous in testis)) (UniProt Q562E2). As to the kind of experiment: affinity purification with mass spectrometry. This is another data set of the same source.
For the molecule “HDAC2 (from UniProt P70288 1-488) (enzyme)”, the binding result is reported as “binds”.

Consider “HDAC1 (from UniProt O09106 1-482) (enzyme)”, for which the binding entry was “binds”.

The target in the next assay is T1, ZFP541 (mouse (endogenous in testis)). As to the kind of experiment: affinity purification with mass spectrometry. This is another data set of the same source.
Turning to “HDAC2 (from UniProt P70288 1-488) (enzyme)”, the binding entry is listed as “binds”.

As for KCTD19 (from UniProt Q562E2-2), the binding entry was “binds”.

Take “HDAC1 (from UniProt O09106 1-482) (enzyme)”: the binding entry is “binds”.

As for B1, the binding entry is reported as “binds”.
